These results are taken from PMC11570952.

Chains of the proteins cited; added tags and fusions are not shown. Residues count along the entry.
UniProt P49790: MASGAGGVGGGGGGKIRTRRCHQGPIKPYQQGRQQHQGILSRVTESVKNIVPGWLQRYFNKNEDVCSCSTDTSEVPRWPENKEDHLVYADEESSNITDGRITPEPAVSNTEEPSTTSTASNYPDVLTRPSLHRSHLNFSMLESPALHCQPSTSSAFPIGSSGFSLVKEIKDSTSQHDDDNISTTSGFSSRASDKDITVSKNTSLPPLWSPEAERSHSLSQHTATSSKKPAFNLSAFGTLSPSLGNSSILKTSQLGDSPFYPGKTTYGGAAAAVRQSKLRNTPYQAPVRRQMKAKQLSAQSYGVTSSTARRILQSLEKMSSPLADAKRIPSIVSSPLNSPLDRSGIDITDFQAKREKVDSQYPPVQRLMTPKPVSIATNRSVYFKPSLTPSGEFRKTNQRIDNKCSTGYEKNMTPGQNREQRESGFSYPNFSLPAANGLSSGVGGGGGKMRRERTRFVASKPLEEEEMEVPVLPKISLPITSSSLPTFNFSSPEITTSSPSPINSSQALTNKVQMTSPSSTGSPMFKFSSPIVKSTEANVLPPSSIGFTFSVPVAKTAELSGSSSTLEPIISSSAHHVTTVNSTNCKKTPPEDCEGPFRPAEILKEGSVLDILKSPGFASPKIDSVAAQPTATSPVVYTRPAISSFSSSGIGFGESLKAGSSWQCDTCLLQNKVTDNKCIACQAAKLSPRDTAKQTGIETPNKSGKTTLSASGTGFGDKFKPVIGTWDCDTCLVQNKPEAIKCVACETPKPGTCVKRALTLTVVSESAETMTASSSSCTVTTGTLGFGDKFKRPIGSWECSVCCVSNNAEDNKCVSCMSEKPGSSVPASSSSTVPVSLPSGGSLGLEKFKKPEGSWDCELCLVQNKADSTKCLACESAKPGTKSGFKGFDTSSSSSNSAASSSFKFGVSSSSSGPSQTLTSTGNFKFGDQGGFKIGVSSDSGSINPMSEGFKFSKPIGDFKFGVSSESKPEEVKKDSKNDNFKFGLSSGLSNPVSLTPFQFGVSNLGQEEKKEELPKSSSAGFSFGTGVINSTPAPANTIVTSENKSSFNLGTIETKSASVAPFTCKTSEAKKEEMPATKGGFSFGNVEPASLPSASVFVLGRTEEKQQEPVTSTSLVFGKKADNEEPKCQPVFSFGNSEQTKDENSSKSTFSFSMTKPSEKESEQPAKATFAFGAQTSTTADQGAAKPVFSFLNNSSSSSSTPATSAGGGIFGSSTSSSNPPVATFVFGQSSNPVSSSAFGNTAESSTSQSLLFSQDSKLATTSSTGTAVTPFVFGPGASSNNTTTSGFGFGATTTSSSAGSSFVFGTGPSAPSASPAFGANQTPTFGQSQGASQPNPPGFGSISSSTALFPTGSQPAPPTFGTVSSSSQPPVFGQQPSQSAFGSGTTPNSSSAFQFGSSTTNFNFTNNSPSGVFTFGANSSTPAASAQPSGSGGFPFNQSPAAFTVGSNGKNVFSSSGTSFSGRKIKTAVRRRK
UniProt O60318: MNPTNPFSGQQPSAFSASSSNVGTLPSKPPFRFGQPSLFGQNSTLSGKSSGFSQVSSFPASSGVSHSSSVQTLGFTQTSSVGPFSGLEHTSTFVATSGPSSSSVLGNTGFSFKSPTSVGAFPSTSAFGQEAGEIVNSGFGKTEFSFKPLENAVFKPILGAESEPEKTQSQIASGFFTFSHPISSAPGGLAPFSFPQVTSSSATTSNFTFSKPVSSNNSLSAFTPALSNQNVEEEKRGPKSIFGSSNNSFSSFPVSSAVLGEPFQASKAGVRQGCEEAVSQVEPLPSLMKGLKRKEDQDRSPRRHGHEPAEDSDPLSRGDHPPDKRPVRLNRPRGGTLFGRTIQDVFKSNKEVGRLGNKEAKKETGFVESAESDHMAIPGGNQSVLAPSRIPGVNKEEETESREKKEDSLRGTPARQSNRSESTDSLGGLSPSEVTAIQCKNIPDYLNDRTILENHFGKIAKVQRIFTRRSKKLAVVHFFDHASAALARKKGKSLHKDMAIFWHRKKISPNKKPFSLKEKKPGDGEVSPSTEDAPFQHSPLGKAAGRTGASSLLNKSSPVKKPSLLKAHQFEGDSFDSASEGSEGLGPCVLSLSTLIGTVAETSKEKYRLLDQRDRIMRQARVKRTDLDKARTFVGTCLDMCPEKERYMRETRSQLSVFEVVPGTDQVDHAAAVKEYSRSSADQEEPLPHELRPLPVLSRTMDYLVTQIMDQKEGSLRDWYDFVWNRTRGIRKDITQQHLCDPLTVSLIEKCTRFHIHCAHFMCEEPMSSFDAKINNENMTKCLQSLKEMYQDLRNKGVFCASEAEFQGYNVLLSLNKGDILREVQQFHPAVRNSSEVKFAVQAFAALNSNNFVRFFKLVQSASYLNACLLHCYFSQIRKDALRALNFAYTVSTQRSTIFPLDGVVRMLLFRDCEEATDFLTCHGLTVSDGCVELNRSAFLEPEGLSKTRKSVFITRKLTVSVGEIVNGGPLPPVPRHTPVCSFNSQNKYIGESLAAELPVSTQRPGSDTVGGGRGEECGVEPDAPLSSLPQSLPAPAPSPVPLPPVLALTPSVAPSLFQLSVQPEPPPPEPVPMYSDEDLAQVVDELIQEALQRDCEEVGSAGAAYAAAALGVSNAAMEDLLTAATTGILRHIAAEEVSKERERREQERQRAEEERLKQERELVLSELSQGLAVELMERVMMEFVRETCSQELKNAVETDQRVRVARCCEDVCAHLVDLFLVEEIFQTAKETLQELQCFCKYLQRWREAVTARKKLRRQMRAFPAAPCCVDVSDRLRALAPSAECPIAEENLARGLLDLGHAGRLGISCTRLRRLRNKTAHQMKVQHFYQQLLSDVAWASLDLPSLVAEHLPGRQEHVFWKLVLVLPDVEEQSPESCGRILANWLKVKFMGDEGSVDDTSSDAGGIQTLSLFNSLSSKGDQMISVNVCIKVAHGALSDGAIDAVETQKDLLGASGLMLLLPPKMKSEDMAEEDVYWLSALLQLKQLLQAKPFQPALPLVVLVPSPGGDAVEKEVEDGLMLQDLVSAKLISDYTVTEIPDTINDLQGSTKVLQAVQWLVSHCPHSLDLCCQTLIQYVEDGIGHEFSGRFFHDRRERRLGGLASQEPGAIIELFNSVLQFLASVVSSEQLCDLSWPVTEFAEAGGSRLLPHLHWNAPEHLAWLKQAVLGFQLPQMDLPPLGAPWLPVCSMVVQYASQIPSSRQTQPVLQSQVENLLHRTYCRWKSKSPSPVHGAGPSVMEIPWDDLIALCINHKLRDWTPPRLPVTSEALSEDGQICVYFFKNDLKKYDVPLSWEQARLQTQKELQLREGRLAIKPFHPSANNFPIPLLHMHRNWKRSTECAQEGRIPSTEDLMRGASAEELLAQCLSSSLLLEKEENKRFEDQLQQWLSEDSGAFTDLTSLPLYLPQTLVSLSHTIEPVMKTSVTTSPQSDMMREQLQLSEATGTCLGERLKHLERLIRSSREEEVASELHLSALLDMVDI
UniProt P52948, residues 1-880: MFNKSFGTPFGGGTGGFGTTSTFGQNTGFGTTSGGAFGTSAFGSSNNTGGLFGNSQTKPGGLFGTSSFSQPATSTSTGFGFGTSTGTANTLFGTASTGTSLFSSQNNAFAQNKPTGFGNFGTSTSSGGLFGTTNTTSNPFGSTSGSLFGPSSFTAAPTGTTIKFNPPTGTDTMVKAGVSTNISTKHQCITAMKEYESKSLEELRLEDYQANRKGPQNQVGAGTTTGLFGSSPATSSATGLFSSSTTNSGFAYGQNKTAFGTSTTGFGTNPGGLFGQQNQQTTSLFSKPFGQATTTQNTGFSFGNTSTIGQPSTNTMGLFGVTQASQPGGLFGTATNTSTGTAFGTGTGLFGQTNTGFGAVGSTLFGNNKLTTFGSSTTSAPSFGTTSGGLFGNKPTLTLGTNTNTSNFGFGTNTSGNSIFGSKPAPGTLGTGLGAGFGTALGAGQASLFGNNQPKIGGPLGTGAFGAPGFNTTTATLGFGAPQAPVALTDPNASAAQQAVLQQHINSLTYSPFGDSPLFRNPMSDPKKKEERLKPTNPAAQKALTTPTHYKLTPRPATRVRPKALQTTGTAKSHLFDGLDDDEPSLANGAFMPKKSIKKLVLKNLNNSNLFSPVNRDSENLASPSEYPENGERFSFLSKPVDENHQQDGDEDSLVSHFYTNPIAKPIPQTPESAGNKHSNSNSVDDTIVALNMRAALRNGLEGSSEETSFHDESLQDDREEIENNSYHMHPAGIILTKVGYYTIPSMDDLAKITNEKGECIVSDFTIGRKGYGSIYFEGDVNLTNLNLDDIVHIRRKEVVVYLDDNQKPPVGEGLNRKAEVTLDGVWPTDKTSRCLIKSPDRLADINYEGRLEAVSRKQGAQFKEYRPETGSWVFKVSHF

No constants are given. Whether binding was seen depends on the method and setting. For some of these results: In cells and extracts the contact can be indirect. Some binding calls cover weakened binding; strength is not graded here. For some of these results: Tags and fused reporters may be left off the sequences shown.

The target in one assay is T1, GST-NXT1•His-NXF1 (UniProt Q9UBU9).
T1 sequence 1: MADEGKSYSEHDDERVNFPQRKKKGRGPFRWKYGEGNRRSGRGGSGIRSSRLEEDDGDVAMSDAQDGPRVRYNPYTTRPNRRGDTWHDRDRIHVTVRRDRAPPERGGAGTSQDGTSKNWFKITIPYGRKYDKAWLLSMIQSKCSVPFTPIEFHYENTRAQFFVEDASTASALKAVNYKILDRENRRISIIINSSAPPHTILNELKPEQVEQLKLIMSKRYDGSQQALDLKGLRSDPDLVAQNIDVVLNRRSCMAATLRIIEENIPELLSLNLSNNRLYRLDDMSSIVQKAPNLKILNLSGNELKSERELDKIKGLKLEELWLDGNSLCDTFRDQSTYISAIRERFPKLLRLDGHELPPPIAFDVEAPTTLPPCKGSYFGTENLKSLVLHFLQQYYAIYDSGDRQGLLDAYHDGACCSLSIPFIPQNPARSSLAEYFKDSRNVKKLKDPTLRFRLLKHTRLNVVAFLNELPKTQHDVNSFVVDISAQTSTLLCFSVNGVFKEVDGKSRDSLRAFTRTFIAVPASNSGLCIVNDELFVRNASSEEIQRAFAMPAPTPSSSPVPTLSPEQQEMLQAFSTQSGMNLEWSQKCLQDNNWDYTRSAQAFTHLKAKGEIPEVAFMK
T1 sequence 2: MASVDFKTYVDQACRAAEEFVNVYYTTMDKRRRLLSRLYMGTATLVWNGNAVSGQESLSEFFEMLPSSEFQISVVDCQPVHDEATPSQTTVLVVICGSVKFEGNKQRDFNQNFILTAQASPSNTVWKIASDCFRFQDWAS
The assay is described as follows: pull-down; competition: 2 μM GST–NXT1•His–NXF1 (or GST) with 25 μl NUP98 or NUP153 transcription–translation reaction on GSH beads, 1 h RT, washed with TBS-T, then 2 and 8 μM His-NS1-BP, 1 h RT; Western blot; only the target purified.

Assay [1] deals with T2, nuclear RNA export factor-1 (NXF1), endogenous in DLD-1 cells (human (endogenous in DLD-1)) (UniProt Q9UBU9).
T2 sequence: T1 sequence 1
Nature of the assay: proximity ligation; DLD1-HA-AID-GANP cells; anti-HA (GANP) and NXF1 antibodies.

Another assay has as its target T3, 3XFlag-NS1-BP (human) (UniProt Q9Y6Y0).
T3 sequence: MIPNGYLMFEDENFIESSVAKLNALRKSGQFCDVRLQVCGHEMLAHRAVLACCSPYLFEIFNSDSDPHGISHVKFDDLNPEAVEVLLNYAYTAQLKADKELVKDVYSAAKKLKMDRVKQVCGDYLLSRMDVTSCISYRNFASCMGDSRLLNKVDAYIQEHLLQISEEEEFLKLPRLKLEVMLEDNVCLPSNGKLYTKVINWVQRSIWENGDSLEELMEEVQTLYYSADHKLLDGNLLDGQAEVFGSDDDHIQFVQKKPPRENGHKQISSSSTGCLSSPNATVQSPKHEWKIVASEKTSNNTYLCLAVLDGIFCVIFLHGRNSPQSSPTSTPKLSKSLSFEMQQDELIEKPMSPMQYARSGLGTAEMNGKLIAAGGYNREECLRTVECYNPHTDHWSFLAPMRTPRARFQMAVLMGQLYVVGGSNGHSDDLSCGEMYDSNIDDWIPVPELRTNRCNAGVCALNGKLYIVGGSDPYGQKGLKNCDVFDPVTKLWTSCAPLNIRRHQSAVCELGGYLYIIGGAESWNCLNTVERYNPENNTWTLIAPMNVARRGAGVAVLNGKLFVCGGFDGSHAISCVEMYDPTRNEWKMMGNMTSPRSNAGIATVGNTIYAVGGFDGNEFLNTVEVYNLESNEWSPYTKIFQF
Nature of the assay: co-IP.

Assay [2] deals with T4, GST-NS1-BP (BTB-BACK) (human) (UniProt Q9Y6Y0).
T4 sequence: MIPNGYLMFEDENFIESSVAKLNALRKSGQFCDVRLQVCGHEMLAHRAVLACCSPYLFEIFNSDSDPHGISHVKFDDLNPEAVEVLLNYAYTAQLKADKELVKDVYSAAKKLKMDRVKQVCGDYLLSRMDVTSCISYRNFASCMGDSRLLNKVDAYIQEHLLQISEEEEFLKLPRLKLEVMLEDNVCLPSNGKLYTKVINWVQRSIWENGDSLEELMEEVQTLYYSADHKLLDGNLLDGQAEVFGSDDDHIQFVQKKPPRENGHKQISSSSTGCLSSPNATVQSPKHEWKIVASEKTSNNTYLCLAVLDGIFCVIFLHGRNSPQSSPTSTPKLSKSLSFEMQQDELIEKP
Nature of the assay: pull-down; GST, GST-NS1-BP or GST-NS1-BP domains immobilised on GSH beads; 1 μM His–NXF1•NXT1; 20 mM Tris, 150 mM NaCl, 1 mM DTT, 1 mM EDTA, pH 7.5; room temperature, 30 min; NXF1 detected by Western blot; both purified.

Assay [3] deals with T5, GST-NS1-BP (Kelch) (human) (UniProt Q9Y6Y0).
T5 sequence: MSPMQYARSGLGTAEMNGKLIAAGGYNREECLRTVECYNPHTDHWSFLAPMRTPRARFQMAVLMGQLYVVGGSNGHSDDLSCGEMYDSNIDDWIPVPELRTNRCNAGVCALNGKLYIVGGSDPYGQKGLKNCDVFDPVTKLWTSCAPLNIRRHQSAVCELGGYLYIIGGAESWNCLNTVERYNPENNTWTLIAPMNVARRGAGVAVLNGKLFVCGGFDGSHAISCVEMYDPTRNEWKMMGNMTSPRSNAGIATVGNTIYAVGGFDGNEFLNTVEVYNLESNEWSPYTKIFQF
The description is as above.

Assay [4] has as its target T6, GST-NS1-BP (full length) (human) (UniProt Q9Y6Y0).
T6 sequence: T3 sequence
The description is as above.

For “Flag-NUP153 (from UniProt P49790 1-1475)”, the binding result with GST-NXT1•His-NXF1 is on record as “binds”.

For “HA-AID-GANP (germinal center–associated nuclear protein) (from UniProt O60318 1-1980)”, the binding result in assay [1] is reported as “binds”. Myc-NUP98 (from UniProt P52948 1-880): the binding result with GST-NXT1•His-NXF1 is reported as “binds”. With “nucleoporin Nup98, endogenous (from UniProt P52948 1-880)”, in the assay with 3XFlag-NS1-BP (human), the binding result was “no binding”.

B1: His-NXF1-NXT1 (complex, UniProt Q9UBU9 1-619; Q9UKK6 1-140)
chain 1: T1 sequence 1
chain 2: T1 sequence 2
Consider B1, for which the binding entry in assay [2], in assay [3] and in assay [4] was “binds” each time.
